Measurements reported in PubChem BioAssay AID1224830 (NIAID, 2016)
Test: 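Regulators of TLR4 signalling towards TNF-alpha in macrophage-like cells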 (primary screen). Cells: human THP-1 monocytic leukaemia cells, TNF dual-luciferase reporter clone, PMA-differentiated to macrophage-like cells. Reagent: siRNA pool against human genes, 50 nM. Time to read-out: LPS for 4 h, given about 3 days after siRNA transfection. Challenge: bacterial LPS (TLR4 ligand), 10 ng/ml. Measurement: 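TNF firefly reporter luminescence divided by renilla, normalised to the plate median, then turned into a robust z-score for each replicate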. Direction: TNF reporter robust z-score: higher = stronger TNF reporter response to LPS. Hit rule: 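Each well counts as active if its z-score is over 2.8 or under -1.5; controls are left without a call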.
This is a random part of about 18,000 deposited reagents. Of all reagents, about 2,900 (16%) are marked active. 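Calls are made per well; low scores hint the gene aids the LPS response, high scores that it dampens it.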 Repeated entries: four replicate wells of each siRNA pool.

gene | TNF reporter robust z-score | call
OR8B8 | 0.32 | inactive
OR8B8 | 0.56 | inactive
OR8B8 | 0.17 | inactive
OR8B8 | 0.61 | inactive
USF1 | 0.57 | inactive
USF1 | 1.01 | inactive
USF1 | 0.47 | inactive
USF1 | 0.04 | inactive
MOBP | -1.24 | inactive
MOBP | -1.04 | inactive
MOBP | -0.98 | inactive
MOBP | -0.44 | inactive
TMEM131L | 1.36 | inactive
TMEM131L | 1.3 | inactive
TMEM131L | 1.74 | inactive
TMEM131L | 0.54 | inactive
GLS2 | 1.98 | inactive
GLS2 | 1.71 | inactive
GLS2 | 1.59 | inactive
GLS2 | 1.06 | inactive
RNLS | -0.23 | inactive
RNLS | -0.14 | inactive
RNLS | -0.7 | inactive
RNLS | -0.42 | inactive
IRAK3 | -0.7 | inactive
IRAK3 | -0.24 | inactive
IRAK3 | -1.05 | inactive
IRAK3 | 0.16 | inactive
RPA1 | 1.48 | inactive
RPA1 | 2.33 | inactive
RPA1 | 2.04 | inactive
RPA1 | 0.86 | inactive
INPP5E | 0.88 | inactive
INPP5E | 0.16 | inactive
INPP5E | -0.19 | inactive
INPP5E | -0.14 | inactive
PCDHB14 | 0.72 | inactive
PCDHB14 | 0.39 | inactive
PCDHB14 | -0.42 | inactive
PCDHB14 | 0.09 | inactive

10 entries from above, arranged by “TNF reporter robust z-score”, ascending.
gene | TNF reporter robust z-score | call
IRAK3 | -1.05 | inactive
RNLS | -0.7 | inactive
IRAK3 | -0.7 | inactive
RNLS | -0.42 | inactive
IRAK3 | -0.24 | inactive
RNLS | -0.23 | inactive
RNLS | -0.14 | inactive
IRAK3 | 0.16 | inactive
GLS2 | 1.06 | inactive
GLS2 | 1.59 | inactive

Next results follow.
gene | TNF reporter robust z-score | call
CNKSR3 | 0.86 | inactive
CNKSR3 | -0.33 | inactive
CNKSR3 | -0.47 | inactive
CNKSR3 | -0.14 | inactive
TRDN | -0.31 | inactive
TRDN | -1.26 | inactive
TRDN | -0.12 | inactive
TRDN | -0.29 | inactive
TUBB2A | 0.95 | inactive
TUBB2A | 3.47 | active
TUBB2A | 3.7 | active
TUBB2A | 1.81 | inactive
OR10C1 | -0.14 | inactive
OR10C1 | 0.91 | inactive
OR10C1 | 1.11 | inactive
OR10C1 | 0.2 | inactive
ACP6 | -0.61 | inactive
ACP6 | 0.35 | inactive
ACP6 | 0.26 | inactive
ACP6 | 0.15 | inactive
SERP1 | 0.11 | inactive
SERP1 | 1.49 | inactive
SERP1 | -1.39 | inactive
SERP1 | -0.36 | inactive
CD207 | -1.38 | inactive
CD207 | -1.01 | inactive
CD207 | -0.77 | inactive
CD207 | -1.15 | inactive
KAT14 | 0.3 | inactive
KAT14 | -0.5 | inactive
KAT14 | -0.62 | inactive
KAT14 | 0.01 | inactive
ZNF260 | -0.28 | inactive
ZNF260 | 2.3 | inactive
ZNF260 | 0.77 | inactive
ZNF260 | 0.9 | inactive
